PubChem BioAssay AID652272 – Drosophila RNAi Screening Center, 2013

Test: 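Genome-wide knock-down search for components of Hedgehog signalling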 (primary screen)
Cells: Drosophila clone 8 (Cl8) cells
Reagent: long dsRNA against Drosophila genes
Detection: 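Plate reader light from a firefly reporter under a ptc promoter fragment that responds to Hedgehog, with Renilla light as transfection reference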
Direction: firefly Hh reporter signal: higher = more ptc reporter light; Renilla reference signal: higher = more Renilla control light
Call rule: 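Called a hit if the two-replicate mean z-score lies below -2 or above +3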
Meaning of the calls: active = hit: reporter lowered or raised; inactive = not a hit
In all, the deposit lists about 21,000 reagents; below is an unselected part of those that have a named target and a result. Of all reagents, 503 (2.4%) were called active. 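Raw plate light values, not normalised; calls rest on replicate z-scores that were not deposited; hits include reporter decreases as well as increases.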 Not stated in the record: the amount of reagent, the time to read-out.

{"predicted target":"Saf-B","amplicon":"DRSC16167","firefly Hh reporter signal, replicate 1":1.46e5,"firefly Hh reporter signal, replicate 2":70534,"Renilla reference signal, replicate 1":5847,"Renilla reference signal, replicate 2":2886,"call":"inactive"}
{"predicted target":"EMC1","amplicon":"DRSC15455","firefly Hh reporter signal, replicate 1":1.18e5,"firefly Hh reporter signal, replicate 2":1.17e5,"Renilla reference signal, replicate 1":5180,"Renilla reference signal, replicate 2":4709,"call":"inactive"}
{"predicted target":"CG34280","amplicon":"DRSC13229","firefly Hh reporter signal, replicate 1":54692,"firefly Hh reporter signal, replicate 2":2.85e5,"Renilla reference signal, replicate 1":12248,"Renilla reference signal, replicate 2":6610,"call":"inactive"}
{"predicted target":"CG5122","amplicon":"DRSC02816","firefly Hh reporter signal, replicate 1":1.29e5,"firefly Hh reporter signal, replicate 2":56279,"Renilla reference signal, replicate 1":3242,"Renilla reference signal, replicate 2":5270,"call":"inactive"}
{"predicted target":"CG3829","amplicon":"DRSC04423","firefly Hh reporter signal, replicate 1":1.35e5,"firefly Hh reporter signal, replicate 2":1.01e5,"Renilla reference signal, replicate 1":5684,"Renilla reference signal, replicate 2":3920,"call":"inactive"}
{"predicted target":"CG6171","amplicon":"DRSC15982","firefly Hh reporter signal, replicate 1":1.25e5,"firefly Hh reporter signal, replicate 2":64950,"Renilla reference signal, replicate 1":5027,"Renilla reference signal, replicate 2":1559,"call":"inactive"}
{"predicted target":"CG14130","amplicon":"DRSC10134","firefly Hh reporter signal, replicate 1":36326,"firefly Hh reporter signal, replicate 2":49460,"firefly Hh reporter signal, replicate 3":49621,"Renilla reference signal, replicate 1":4048,"Renilla reference signal, replicate 2":4291,"call":"inactive"}
{"predicted target":"CG31551","amplicon":"DRSC12159","firefly Hh reporter signal, replicate 1":2.13e5,"firefly Hh reporter signal, replicate 2":8.40e5,"firefly Hh reporter signal, replicate 3":1.43e5,"Renilla reference signal, replicate 1":7848,"Renilla reference signal, replicate 2":48371,"call":"inactive"}
{"predicted target":"O-fut2","amplicon":"DRSC18608","firefly Hh reporter signal, replicate 1":72669,"firefly Hh reporter signal, replicate 2":84813,"Renilla reference signal, replicate 1":1952,"Renilla reference signal, replicate 2":2342,"call":"inactive"}
{"predicted target":"CG11977","amplicon":"DRSC14454","firefly Hh reporter signal, replicate 1":62816,"firefly Hh reporter signal, replicate 2":91676,"Renilla reference signal, replicate 1":3201,"Renilla reference signal, replicate 2":3075,"call":"inactive"}
{"predicted target":"Ipk1","amplicon":"DRSC04235","firefly Hh reporter signal, replicate 1":1.06e5,"firefly Hh reporter signal, replicate 2":72807,"Renilla reference signal, replicate 1":3911,"Renilla reference signal, replicate 2":2660,"call":"inactive"}
{"predicted target":"Ipk1","amplicon":"DRSC04236","firefly Hh reporter signal, replicate 1":1.02e5,"firefly Hh reporter signal, replicate 2":61873,"Renilla reference signal, replicate 1":2517,"Renilla reference signal, replicate 2":5521,"call":"inactive"}
{"predicted target":"Ipk1","amplicon":"DRSC04237","firefly Hh reporter signal, replicate 1":1.08e5,"firefly Hh reporter signal, replicate 2":45699,"Renilla reference signal, replicate 1":2717,"Renilla reference signal, replicate 2":4346,"call":"inactive"}
{"predicted target":"pes","amplicon":"DRSC03033","firefly Hh reporter signal, replicate 1":77692,"firefly Hh reporter signal, replicate 2":60275,"Renilla reference signal, replicate 1":1922,"Renilla reference signal, replicate 2":4881,"call":"inactive"}
{"predicted target":"meru","amplicon":"DRSC09400","firefly Hh reporter signal, replicate 1":2.06e5,"Renilla reference signal, replicate 1":5637,"call":"inactive"}
{"predicted target":"meru","amplicon":"DRSC09899","firefly Hh reporter signal, replicate 1":63989,"Renilla reference signal, replicate 1":4675,"Renilla reference signal, replicate 2":2396,"call":"active"}
{"predicted target":"meru","amplicon":"DRSC10215","firefly Hh reporter signal, replicate 1":1.10e5,"Renilla reference signal, replicate 1":5600,"Renilla reference signal, replicate 2":3121,"call":"inactive"}
{"predicted target":"Bgb","amplicon":"DRSC08148","firefly Hh reporter signal, replicate 1":1.36e5,"firefly Hh reporter signal, replicate 2":80092,"Renilla reference signal, replicate 1":5703,"Renilla reference signal, replicate 2":3376,"call":"inactive"}
{"predicted target":"Vm26Ab","amplicon":"DRSC03473","firefly Hh reporter signal, replicate 1":1.99e5,"firefly Hh reporter signal, replicate 2":6.20e5,"firefly Hh reporter signal, replicate 3":86054,"Renilla reference signal, replicate 1":4700,"Renilla reference signal, replicate 2":33745,"call":"inactive"}
{"predicted target":"CG8389","amplicon":"DRSC07158","firefly Hh reporter signal, replicate 1":1.41e5,"firefly Hh reporter signal, replicate 2":1.21e5,"Renilla reference signal, replicate 1":5884,"Renilla reference signal, replicate 2":4923,"call":"inactive"}
{"predicted target":"CG14691","amplicon":"DRSC14914","firefly Hh reporter signal, replicate 1":73849,"firefly Hh reporter signal, replicate 2":1.04e5,"Renilla reference signal, replicate 1":1370,"Renilla reference signal, replicate 2":3416,"call":"inactive"}
{"predicted target":"Ote","amplicon":"DRSC07498","firefly Hh reporter signal, replicate 1":1.11e5,"firefly Hh reporter signal, replicate 2":1.05e5,"Renilla reference signal, replicate 1":6131,"Renilla reference signal, replicate 2":3829,"call":"inactive"}
{"predicted target":"CG33282","amplicon":"DRSC00422","firefly Hh reporter signal, replicate 1":1.02e5,"firefly Hh reporter signal, replicate 2":45881,"Renilla reference signal, replicate 1":2578,"Renilla reference signal, replicate 2":5028,"call":"inactive"}
{"predicted target":"lz","amplicon":"DRSC18790","firefly Hh reporter signal, replicate 1":78758,"firefly Hh reporter signal, replicate 2":6.26e5,"firefly Hh reporter signal, replicate 3":2.32e5,"Renilla reference signal, replicate 1":1912,"Renilla reference signal, replicate 2":5649,"call":"inactive"}
{"predicted target":"CG15357","amplicon":"DRSC00387","firefly Hh reporter signal, replicate 1":73435,"firefly Hh reporter signal, replicate 2":1.00e5,"Renilla reference signal, replicate 1":1712,"Renilla reference signal, replicate 2":2195,"call":"inactive"}
{"predicted target":"CG13872","amplicon":"DRSC06431","firefly Hh reporter signal, replicate 1":1.08e5,"firefly Hh reporter signal, replicate 2":56181,"Renilla reference signal, replicate 1":3061,"Renilla reference signal, replicate 2":4379,"call":"inactive"}
{"predicted target":"CG13926","amplicon":"DRSC08395","firefly Hh reporter signal, replicate 1":59319,"firefly Hh reporter signal, replicate 2":40381,"Renilla reference signal, replicate 1":2156,"Renilla reference signal, replicate 2":3393,"call":"inactive"}
